According to article PMC3858551:
No constants are given. Whether binding was seen depends on the method and setting. Binding seen in cells or lysates may run through a third protein. Some entries that bind do so weakly or less than the wild type.

The chains behind the UniProt entries cited, without tags or fusion partners. Residues count along the entry.
UniProt Q05397: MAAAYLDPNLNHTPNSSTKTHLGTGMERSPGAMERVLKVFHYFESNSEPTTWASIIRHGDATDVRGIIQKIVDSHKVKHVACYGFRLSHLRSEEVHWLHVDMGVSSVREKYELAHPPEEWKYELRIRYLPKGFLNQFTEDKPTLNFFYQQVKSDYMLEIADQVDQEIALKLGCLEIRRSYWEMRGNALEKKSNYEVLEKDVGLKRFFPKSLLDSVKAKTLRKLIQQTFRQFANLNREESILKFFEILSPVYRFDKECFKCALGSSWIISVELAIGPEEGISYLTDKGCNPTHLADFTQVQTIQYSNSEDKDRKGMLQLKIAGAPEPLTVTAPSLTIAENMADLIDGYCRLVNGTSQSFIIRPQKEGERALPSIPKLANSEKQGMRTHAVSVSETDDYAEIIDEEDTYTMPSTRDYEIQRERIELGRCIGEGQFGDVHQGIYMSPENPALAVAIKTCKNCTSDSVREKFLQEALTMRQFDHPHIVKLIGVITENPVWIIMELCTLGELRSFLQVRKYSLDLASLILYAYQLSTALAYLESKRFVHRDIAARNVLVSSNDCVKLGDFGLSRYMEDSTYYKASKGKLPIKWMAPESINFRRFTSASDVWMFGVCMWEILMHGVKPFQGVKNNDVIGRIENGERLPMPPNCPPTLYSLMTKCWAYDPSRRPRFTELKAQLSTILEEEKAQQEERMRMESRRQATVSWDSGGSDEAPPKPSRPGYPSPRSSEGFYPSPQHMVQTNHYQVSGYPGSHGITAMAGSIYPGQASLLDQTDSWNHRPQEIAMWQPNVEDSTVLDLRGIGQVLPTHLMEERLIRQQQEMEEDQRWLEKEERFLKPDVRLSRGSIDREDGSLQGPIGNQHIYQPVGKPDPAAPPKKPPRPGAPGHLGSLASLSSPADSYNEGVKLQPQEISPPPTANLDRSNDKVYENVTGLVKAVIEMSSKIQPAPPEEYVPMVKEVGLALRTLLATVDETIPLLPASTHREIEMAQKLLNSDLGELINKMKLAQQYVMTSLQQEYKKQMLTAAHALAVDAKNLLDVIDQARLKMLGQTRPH
UniProt P35916, residues 25-1363: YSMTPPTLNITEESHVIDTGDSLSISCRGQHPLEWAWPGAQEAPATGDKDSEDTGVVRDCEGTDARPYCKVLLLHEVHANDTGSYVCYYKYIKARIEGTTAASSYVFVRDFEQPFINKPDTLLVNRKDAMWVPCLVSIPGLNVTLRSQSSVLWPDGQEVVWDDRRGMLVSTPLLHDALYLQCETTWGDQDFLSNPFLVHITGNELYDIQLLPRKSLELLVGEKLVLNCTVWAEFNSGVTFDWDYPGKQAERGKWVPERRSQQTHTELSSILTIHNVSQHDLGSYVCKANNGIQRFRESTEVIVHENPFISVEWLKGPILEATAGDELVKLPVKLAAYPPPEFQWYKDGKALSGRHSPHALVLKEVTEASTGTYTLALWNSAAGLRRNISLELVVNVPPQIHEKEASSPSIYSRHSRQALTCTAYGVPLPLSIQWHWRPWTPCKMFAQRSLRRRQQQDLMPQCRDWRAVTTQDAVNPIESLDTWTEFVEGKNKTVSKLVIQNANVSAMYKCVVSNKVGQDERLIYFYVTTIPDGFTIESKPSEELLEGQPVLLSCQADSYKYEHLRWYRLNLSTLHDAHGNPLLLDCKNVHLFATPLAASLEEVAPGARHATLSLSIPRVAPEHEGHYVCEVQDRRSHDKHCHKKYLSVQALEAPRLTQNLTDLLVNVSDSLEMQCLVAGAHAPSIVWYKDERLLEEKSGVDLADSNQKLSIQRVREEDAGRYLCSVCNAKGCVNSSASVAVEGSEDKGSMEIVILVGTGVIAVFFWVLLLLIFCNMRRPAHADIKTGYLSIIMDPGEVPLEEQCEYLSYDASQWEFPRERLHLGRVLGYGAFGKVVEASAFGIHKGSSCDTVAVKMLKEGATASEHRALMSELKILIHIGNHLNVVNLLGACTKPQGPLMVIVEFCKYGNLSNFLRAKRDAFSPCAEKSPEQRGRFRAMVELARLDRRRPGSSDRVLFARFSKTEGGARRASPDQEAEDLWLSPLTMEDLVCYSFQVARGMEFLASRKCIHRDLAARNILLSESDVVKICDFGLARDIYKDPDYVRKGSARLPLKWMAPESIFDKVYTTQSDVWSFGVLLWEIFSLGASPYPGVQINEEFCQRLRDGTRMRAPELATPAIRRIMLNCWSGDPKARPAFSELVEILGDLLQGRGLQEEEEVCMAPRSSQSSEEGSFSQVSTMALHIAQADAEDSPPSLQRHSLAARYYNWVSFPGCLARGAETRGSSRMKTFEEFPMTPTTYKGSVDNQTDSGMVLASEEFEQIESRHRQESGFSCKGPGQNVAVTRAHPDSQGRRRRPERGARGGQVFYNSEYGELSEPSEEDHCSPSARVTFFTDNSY

Biological target: Focal adhesion kinase (human (endogenous in MiaPaCa-2 and Panc-1)) (UniProt Q05397)
Assay: co-IP; FAK immunoprecipitated from lysates of MiaPaCa-2 and Panc-1 cells and probed for VEGFR-3; cells treated 24 h with increasing concentrations of C4 (chloropyramine hydrochloride; vehicle, 10 uM), MiaPaCa-2 also with VEGF-C; complex decreased by 10 uM C4

binding: binds
Substance: vascular endothelial growth factor receptor 3 (from UniProt P35916 25-1363)
